This passage reports binding results from article PMC7253607.

Protein sequences, listed by entry. Tags and fused reporters are not part of them.
UniProt Q9RGX0: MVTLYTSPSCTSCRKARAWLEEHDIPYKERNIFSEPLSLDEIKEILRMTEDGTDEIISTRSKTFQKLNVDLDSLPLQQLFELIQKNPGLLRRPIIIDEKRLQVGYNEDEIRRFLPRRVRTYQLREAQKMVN

The target of assay [1] is T1, B. subtilis Spx (SpxBs), BACTH fusion (Bacillus subtilis) (UniProt O31602).
T1 sequence: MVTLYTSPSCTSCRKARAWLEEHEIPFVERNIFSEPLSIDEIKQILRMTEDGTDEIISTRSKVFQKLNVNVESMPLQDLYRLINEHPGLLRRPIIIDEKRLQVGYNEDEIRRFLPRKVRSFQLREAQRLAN
Briefly: two-hybrid.

In assay [2] the target is L. monocytogenes SpxA1 fused to the T25 domain (SpxA1-T25) (Listeria monocytogenes) (UniProt Q9RGX0). Description: two-hybrid.

Results are given in words; binding and its absence hold for the method and conditions named. Some results given as binding are weak or reduced against the parent protein; the word gives no strength. Tags and fused reporters may be left off the sequences shown.

B1: B. subtilis YjbH (YjbHBs), BACTH fusion (protein, UniProt O31606 1-299)
chain: MTNYQHELYFAHCHGHPKKPLEIYMFVDPLCPECWSLEPVIKKLKIRYGRFFTLRIIASASLTALNKKRKKHLLAEAWEKIASRSGMSCDGNVWFEQDQPLSSPYMAALAFKAAELQGRKAGMQFLRNMQESLFVSKKNITDENVLLEIAENTSLDLEEFKKDLHSQSAVKALQCDMKIAAEMDVSVNPTLTFFNTQHEDEGLKVPGSYSYDVYEEILFEMLGDEPKPSETPPLECFIEYFRFVASKEIALVYDLSLEEVEKEMKKLAFAKKVAKVEAKHGMFWKSLSTYSDEYQSCEK
For the molecule B1, the binding entry in assay [1] and in assay [2] was “binds” in each case.
